Data published in patent US10792257B2, “Pharmaceutical compositions comprising safinamide” (Zambon S.P.A., priority 2016, dated 2020).

Assay: Organoleptic characteristics of the active ingredient as noted by the inventors
Details: unmasked active ingredient

## C[C@H](NCc1ccc(OCc2cccc(F)c2)cc1)C(N)=O [safinamide methanesulfonate, Safinamide methanesulfonate]
  taste: unpleasant taste, with a bitter component that is decidedly very intense, astringent
